This is an account of results in PMC11749472.

These are yes or no findings as the source states them, for the method shown. Binding seen in cells or lysates may run through a third protein. Binding calls can cover weak binding; strength is not graded here. Tags and fused reporters may be left off the sequences shown.

This assay addresses ARM-Flag (ARM domain of SARM1) (human). Description: co-IP; HEK293T lysates in co-IP buffer (50 mM Tris-HCl pH 7.4, 150 mM NaCl, 1% NP-40, 1 mM EDTA, 5% glycerol), mouse anti-Flag beads at 4°C overnight, Western blot; for ARM-TIR also with USP13 OE, USP13 KD (siRNA cocktail) or USP13^AE OE.

B1: TIR-myc (TIR domain of SARM1) (domain or fragment, UniProt Q6SZW1 560-703)
chain: DTPDVFISYRRNSGSQLASLLKVHLQLHGFSVFIDVEKLEAGKFEDKLIQSVMGARNFVLVLSPGALDKCMQDHDCKDWVHKEIVTALSCGKNIVPIIDGFEWPEPQVLPEDMQAVLTFNGIKWSHEYQEATIEKIIRFLQGRS
With B1, the binding entry was “binds”.
